At least one peptide structure holds a part that was inferred or is arguable (an end, a ring closure or a residue). Ends that are not written are not given here.
Columns and labels:
sGCα1 = target: T1, sGCα1 (Homo sapiens, UniProt Q02108); experiment: Competitive binding assay
T1 construct: LNCap protein extract containing partially purified sGCα1; endogenous in cells; host or cells: LNCaP protein extract, partially purified (inferred)
T1 sequence (Q02108 1-690): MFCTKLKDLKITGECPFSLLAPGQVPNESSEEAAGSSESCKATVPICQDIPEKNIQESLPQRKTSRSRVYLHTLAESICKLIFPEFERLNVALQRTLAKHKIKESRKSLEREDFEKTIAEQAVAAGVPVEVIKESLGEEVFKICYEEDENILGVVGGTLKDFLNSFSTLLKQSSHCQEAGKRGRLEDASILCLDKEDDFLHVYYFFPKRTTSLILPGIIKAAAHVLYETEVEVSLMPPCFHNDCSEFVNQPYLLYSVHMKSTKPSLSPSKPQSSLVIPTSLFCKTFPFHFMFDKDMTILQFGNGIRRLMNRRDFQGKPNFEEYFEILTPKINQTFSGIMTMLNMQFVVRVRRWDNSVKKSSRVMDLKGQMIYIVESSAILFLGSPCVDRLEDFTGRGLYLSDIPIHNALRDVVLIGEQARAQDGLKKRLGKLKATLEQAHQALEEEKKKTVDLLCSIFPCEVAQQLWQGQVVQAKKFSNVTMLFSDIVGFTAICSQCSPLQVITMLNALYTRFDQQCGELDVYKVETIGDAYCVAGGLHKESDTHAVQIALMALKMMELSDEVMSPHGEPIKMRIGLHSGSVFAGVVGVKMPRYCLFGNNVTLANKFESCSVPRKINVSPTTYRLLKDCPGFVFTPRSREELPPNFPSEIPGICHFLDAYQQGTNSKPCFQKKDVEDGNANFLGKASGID

LNCaP cell culture = format: cell-based; settings: Table 1, NotA means not active
From the text: In one non-limiting example, Peptide A-8R [SEQ ID NO: 1] can be truncated to a smaller peptide that retains the same type of biological activity profile. In certain embodiments, truncating Peptide A-8R [SEQ ID NO: 1] results in greater potency upon conversion of some of the pharmacophore functionalities to peptidomimetic groups that can, in turn, enhance key interactions by lowering the net binding energy. In one experiment, Peptide A-8R [SEQ ID NO: 1] was divided into two parts, using the central proline residue as the division point. […] A minimum number of amino acids desired for cytotoxicity was then identified. […] The following Peptide A truncated and derivative probes were synthesized and evaluated for their effect on cytotoxicity after 3- and 6-day exposures:
The following table lists cell culture data for truncated Peptide A peptides. The amino acid sequences and IC50 values in μM concentrations depict cytotoxicity after 3- and 6-day exposures (“NotA” means not active). “8R” [SEQ ID NO: 6] signifies that 8 arginines are present on the carboxy terminus to mediate membrane translocation. The data has shown that the 8R terminus [SEQ ID NO: 6] can be either as the free carboxy (—OH) or amide (—NH2) with no alteration of permeation or observed activity. […]

Row | Substance | binding to sGCα1 (sGCα1) | IC50 3 Days (LNCaP cell culture; cytotoxicity after 3-day exposure) | IC50 6 Days (LNCaP cell culture; cytotoxicity after 6-day exposure)
1 | KAFPRRRRRRRR [Peptide KP4-8R] | did not |  | 
2 | PFHIIRRRRRRRR-NH2 [Peptide PI5-8R] |  | NotA | NotA
3 | TFCKAFRRRRRRRR-NH2 [Peptide TF6-8R] | bound to sGCα1 |  | 
